Results deposited as PubChem BioAssay AID504786 (Drosophila RNAi Screening Center, 2011).

Purpose: 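Knock-downs reducing HIF reporter induction by the iron chelator DFO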 (primary screen)
Cell system: Drosophila S2 cells with a stable HIF luciferase reporter
Reagents: long dsRNA against Drosophila genes, about 0.2 µg dsRNA per well of a 384-well plate
Timing: three days of knock-down, then 20 h of DFO before reading
Treatment: desferrioxamine (DFO) at 100 µM, an iron chelator that mimics hypoxia, for 20 h
Read-out: 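HIF reporter luminescence in cells given 100 µM DFO for 20 h, using the mouse ldh-a hypoxia-response element, scored as per-plate z-scores; higher means greater loss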
Scale: z-score: higher = stronger loss of HIF reporter signal
The screen tested about 21,000 reagents; this is an unselected part of those with a known target gene and a result. 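Primary screen; positive scores mean lost reporter signal, so the sign may be inverted from the usual convention.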 Names joined by + are all predicted targets of the reagent. Further read-outs or replicates are left out here. No sequences are given here.

z-score, replicate 1, by predicted target and reagent
Cyp6a18 (GeneID 43304): DRSC16632 -0.5
Pif2 (GeneID 170876): DRSC12525 -0.3
CG15745 (retired record) (GeneID 32283): DRSC19711 -0.1
Patsas (GeneID 34634): DRSC02975 -0.2
Orp8 (GeneID 42412): DRSC15110 -0.8; DRSC15712 -0.2
CG10051 (GeneID 37222): DRSC05959 -0.4
Acsx3 (GeneID 42354): DRSC14309 -0.3
CG13021 (GeneID 31323): DRSC17893 -0.1
COX3 (retired record) (GeneID 192471): DRSC21279 -0.4
CG15255 (GeneID 34913): DRSC01869 -0.2
anne (GeneID 317815): DRSC17103 7.2
salto (GeneID 36332): DRSC06291 -0.3
X11L (GeneID 252671): DRSC19958 -0.4; DRSC19959 -0.3
CG7289 (GeneID 33372): DRSC00697 -0.3
Eip63F-1 (GeneID 47878): DRSC08072 -0.1; DRSC08659 -0.3
Gk2 (GeneID 38221): DRSC08610 -0.2
Gbs-70E (GeneID 39588): DRSC11055 -0.1
CG9922 (GeneID 41708): DRSC16579 -0.2
mars (GeneID 36498): DRSC06656 -0.2
Mvb12 (GeneID 32791): DRSC20027 -0.3
p (GeneID 41025): DRSC16560 -0.3
CG8476 (GeneID 41624): DRSC16426 0
CrzR (GeneID 39409): DRSC09781 -0.3; DRSC09782 -0.3
Mvd (GeneID 32520): DRSC20096 -0.2
CG33233 (GeneID 2769005): DRSC08239 -0.2
CG14933 + CG42486: DRSC02415 0.1
MFS10 (GeneID 32263): DRSC19888 -0.3
rumpel (GeneID 31674): DRSC18436 -0.2
Ntmt (GeneID 36022): DRSC06624 -0.2
CG5793 (GeneID 42505): DRSC15874 0.1
CG15196 (GeneID 32084): DRSC19643 -0.2
Vajk4 (GeneID 36950): DRSC06589 0; DRSC07003 -0.4
cdm (GeneID 42171): DRSC16213 -0.1
CG3191 (GeneID 31209): DRSC18530 -0.3
CG1722 (GeneID 33101): DRSC20547 -0.3
CG6163 (GeneID 39274): DRSC10595 -0.3
mus201 + Chrac-14: DRSC03568 -0.3; DRSC03575 -0.2
CG6280 (GeneID 36522): DRSC06972 0.3
Tsp47F (GeneID 36230): DRSC07325 0.9
Ric (GeneID 36776): DRSC07532 -0.2
jv (GeneID 318008): DRSC08831 -0.4; DRSC08832 -0.3
CG34386 (GeneID 5740303): DRSC06467 1.8; DRSC06468 -0.4
D (GeneID 39570): DRSC11132 -0.2
Art9 (GeneID 41698): DRSC16584 -0.4
CG13154 (GeneID 36359): DRSC06279 0.3
Fbl6 (GeneID 36201): DRSC06335 -0.4
Osi21 (GeneID 34566): DRSC02408 -0.3
Ugt36F1 (GeneID 35137): DRSC02601 -0.3
CR30068 (retired record) (GeneID 3771873): DRSC05477 -0.3
SRPK (GeneID 36706): DRSC07090 -0.2
CG13930 (GeneID 38210): DRSC08399 -0.2
CG9926 (GeneID 41700): DRSC16582 -0.2
a (GeneID 43852): DRSC04667 1.9; DRSC04668 -0.3
opm (GeneID 32435): DRSC20141 -0.4
CG5757 (GeneID 37062): DRSC06951 -0.1
Tk (GeneID 41456): DRSC14954 -0.3
CG1737 (GeneID 32077): DRSC19771 0.2
CG17715 (GeneID 3355129): DRSC11950 -0.3
Lamtor2 + CG30120: DRSC05726 0.7; DRSC06922 -0.2
CG31213 (GeneID 42382): DRSC14312 0.8; DRSC15647 0.2
Ubc7 (GeneID 44054): DRSC20299 -0.5
CG5697 (GeneID 42483): DRSC15858 0.4
CG17224 (GeneID 33510): DRSC00489 -0.1
CG5731 (GeneID 34355): DRSC02883 0.1
CG32266 (GeneID 317945): DRSC08062 -0.4
Or49b (GeneID 36413): DRSC07494 -0.1
Abd-B (GeneID 47763): DRSC14098 0.1; DRSC14337 -0.7
CG32206 (GeneID 40105): DRSC09602 -0.3; DRSC10094 -0.3; DRSC10095 -0.2; DRSC10096 -0.3; DRSC11080 -0.3

14 entries from above, ordered by “z-score, replicate 1”, high to low.
predicted target	dsRNA	z-score, replicate 1
anne (GeneID 317815)	DRSC17103	7.2
CG15745 (retired record) (GeneID 32283)	DRSC19711	-0.1
CG13021 (GeneID 31323)	DRSC17893	-0.1
Patsas (GeneID 34634)	DRSC02975	-0.2
Orp8 (GeneID 42412)	DRSC15712	-0.2
CG15255 (GeneID 34913)	DRSC01869	-0.2
Pif2 (GeneID 170876)	DRSC12525	-0.3
Acsx3 (GeneID 42354)	DRSC14309	-0.3
salto (GeneID 36332)	DRSC06291	-0.3
CG10051 (GeneID 37222)	DRSC05959	-0.4
COX3 (retired record) (GeneID 192471)	DRSC21279	-0.4
X11L (GeneID 252671)	DRSC19958	-0.4
Cyp6a18 (GeneID 43304)	DRSC16632	-0.5
Orp8 (GeneID 42412)	DRSC15110	-0.8
